# Test results published in the supplement of paper PMC11732987, “Enantioselective OTUD7B fragment discovery through chemoproteomics screening and high-throughput optimisation” (Communications Chemistry, 2025).
# Amino acid sequences for entries named in this document (tags omitted). A change or cut given only in a name is not applied to a line headed by its entry. Residues count along the entry.
# UniProt Q9BQ90: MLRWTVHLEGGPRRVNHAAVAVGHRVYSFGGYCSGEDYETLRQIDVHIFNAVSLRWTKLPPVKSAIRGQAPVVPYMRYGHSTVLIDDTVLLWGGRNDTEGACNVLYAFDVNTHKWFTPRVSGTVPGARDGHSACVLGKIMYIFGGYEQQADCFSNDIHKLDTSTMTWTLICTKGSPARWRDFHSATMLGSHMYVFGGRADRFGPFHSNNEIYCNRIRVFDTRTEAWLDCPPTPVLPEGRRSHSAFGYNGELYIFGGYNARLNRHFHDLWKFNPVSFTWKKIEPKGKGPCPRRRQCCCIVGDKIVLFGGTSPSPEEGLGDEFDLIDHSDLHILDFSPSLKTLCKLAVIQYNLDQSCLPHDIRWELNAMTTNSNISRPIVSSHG
# UniProt Q5TKA1: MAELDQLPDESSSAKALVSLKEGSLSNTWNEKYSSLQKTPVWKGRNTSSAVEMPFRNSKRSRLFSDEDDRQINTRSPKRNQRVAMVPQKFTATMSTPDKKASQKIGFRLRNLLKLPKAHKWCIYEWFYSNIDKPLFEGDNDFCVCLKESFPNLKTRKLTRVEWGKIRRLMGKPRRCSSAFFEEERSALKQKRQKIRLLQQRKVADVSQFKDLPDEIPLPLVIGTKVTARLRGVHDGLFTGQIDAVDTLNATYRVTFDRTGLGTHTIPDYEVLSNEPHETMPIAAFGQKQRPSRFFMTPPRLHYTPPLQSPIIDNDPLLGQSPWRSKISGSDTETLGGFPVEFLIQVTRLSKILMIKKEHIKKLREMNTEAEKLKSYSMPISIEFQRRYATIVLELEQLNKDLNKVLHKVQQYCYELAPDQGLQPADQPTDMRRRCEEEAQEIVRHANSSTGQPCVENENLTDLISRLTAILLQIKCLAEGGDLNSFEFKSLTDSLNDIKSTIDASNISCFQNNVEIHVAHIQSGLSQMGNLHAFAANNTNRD
# UniProt P49917, 2-25: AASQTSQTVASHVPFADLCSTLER
# UniProt Q1L5Z9, 246-266: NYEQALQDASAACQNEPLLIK
# UniProt Q8NG31: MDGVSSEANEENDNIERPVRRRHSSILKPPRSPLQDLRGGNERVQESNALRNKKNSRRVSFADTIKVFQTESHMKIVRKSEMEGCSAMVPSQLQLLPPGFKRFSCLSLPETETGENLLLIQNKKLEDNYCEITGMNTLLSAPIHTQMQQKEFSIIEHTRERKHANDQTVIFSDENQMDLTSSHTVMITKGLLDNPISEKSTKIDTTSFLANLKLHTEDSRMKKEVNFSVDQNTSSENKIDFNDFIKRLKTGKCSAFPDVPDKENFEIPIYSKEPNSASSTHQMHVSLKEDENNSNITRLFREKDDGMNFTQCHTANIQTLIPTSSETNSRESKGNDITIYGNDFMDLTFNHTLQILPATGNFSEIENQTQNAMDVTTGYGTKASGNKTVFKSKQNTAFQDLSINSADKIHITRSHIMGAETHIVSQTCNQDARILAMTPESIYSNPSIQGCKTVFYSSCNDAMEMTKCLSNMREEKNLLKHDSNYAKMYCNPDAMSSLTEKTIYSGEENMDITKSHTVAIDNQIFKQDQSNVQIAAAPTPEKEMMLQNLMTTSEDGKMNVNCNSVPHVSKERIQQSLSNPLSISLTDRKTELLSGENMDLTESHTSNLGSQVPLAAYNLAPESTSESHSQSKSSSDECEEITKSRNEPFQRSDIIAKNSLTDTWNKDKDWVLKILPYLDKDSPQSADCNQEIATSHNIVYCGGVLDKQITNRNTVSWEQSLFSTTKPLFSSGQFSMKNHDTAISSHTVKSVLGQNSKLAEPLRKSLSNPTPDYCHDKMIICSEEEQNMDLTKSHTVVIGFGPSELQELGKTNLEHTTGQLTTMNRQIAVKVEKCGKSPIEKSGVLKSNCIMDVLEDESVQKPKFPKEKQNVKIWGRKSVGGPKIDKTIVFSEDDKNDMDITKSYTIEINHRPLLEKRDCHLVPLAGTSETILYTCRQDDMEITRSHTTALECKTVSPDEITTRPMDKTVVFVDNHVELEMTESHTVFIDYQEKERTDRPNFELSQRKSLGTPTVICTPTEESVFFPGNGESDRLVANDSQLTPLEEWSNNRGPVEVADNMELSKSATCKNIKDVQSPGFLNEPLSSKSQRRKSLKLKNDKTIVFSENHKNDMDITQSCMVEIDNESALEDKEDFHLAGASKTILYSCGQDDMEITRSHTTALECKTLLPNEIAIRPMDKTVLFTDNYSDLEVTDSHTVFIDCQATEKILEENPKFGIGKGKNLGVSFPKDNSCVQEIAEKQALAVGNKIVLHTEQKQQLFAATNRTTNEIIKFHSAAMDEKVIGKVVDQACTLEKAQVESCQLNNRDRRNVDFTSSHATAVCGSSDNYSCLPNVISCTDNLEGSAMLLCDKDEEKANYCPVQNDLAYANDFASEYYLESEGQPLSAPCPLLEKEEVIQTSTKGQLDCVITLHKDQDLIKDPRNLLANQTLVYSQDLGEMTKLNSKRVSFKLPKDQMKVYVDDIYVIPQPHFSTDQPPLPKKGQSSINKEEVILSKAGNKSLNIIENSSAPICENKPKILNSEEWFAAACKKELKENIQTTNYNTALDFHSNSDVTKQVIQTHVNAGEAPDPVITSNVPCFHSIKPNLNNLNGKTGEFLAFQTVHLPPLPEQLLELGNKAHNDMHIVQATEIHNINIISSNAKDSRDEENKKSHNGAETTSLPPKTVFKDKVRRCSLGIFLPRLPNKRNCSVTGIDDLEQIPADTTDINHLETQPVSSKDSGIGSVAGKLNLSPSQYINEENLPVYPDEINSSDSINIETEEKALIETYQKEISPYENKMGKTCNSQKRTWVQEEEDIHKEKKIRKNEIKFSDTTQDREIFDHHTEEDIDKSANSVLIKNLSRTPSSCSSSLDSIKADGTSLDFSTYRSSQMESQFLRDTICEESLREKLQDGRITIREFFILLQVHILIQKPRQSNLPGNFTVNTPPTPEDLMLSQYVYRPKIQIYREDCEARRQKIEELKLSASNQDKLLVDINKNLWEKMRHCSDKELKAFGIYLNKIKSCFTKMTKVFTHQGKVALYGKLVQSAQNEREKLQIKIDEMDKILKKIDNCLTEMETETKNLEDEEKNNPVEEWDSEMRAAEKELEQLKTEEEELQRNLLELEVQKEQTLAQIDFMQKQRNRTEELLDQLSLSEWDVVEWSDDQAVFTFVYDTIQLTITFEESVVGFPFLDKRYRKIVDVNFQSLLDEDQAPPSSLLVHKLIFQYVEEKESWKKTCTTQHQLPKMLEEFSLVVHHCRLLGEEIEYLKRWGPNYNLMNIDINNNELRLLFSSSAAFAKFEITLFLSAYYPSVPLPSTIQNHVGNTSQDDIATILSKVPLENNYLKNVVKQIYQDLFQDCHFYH
# UniProt Q9NUP9: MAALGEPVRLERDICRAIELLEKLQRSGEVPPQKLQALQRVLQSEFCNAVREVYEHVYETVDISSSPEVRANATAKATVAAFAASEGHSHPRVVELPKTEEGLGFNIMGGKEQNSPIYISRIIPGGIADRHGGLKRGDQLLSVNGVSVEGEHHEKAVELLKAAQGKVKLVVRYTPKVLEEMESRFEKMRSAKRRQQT
# UniProt Q8NC56: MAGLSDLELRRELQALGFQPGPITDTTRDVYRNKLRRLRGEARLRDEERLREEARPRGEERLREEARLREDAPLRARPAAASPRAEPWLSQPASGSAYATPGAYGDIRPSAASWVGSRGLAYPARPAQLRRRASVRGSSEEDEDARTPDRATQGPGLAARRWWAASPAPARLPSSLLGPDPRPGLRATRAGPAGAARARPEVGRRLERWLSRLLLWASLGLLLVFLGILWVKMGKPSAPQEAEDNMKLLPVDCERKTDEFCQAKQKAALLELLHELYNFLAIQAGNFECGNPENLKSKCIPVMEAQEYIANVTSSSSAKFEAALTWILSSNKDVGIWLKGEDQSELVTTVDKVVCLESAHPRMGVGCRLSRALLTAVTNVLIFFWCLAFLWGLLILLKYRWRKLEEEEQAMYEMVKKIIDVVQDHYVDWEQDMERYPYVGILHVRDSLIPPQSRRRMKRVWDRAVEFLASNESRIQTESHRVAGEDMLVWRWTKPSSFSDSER
# UniProt Q8NF37, 427-446: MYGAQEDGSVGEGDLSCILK
# UniProt Q8NEZ4, 3744-3769: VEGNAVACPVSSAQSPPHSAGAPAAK
# UniProt Q8TBB5, 413-432: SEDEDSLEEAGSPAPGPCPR
# UniProt Q92615, whole entry, looked up: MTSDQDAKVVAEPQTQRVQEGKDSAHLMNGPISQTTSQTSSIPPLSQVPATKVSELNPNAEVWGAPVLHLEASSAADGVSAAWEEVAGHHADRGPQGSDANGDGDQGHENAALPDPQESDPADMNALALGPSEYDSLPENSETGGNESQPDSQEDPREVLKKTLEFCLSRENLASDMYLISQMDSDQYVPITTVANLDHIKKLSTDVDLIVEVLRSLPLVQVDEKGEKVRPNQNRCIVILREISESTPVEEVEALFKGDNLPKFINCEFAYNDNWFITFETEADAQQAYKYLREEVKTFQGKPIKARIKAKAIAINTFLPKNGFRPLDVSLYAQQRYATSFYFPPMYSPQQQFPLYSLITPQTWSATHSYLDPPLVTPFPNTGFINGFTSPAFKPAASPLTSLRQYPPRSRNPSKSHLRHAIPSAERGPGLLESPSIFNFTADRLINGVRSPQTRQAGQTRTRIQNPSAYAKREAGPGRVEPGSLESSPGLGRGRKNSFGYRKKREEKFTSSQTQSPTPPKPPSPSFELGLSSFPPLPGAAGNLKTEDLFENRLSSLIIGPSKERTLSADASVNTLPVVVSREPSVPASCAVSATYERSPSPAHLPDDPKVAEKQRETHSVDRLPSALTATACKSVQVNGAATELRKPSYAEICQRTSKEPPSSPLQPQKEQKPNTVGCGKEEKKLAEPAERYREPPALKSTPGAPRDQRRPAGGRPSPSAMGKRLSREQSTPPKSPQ
# UniProt P01130: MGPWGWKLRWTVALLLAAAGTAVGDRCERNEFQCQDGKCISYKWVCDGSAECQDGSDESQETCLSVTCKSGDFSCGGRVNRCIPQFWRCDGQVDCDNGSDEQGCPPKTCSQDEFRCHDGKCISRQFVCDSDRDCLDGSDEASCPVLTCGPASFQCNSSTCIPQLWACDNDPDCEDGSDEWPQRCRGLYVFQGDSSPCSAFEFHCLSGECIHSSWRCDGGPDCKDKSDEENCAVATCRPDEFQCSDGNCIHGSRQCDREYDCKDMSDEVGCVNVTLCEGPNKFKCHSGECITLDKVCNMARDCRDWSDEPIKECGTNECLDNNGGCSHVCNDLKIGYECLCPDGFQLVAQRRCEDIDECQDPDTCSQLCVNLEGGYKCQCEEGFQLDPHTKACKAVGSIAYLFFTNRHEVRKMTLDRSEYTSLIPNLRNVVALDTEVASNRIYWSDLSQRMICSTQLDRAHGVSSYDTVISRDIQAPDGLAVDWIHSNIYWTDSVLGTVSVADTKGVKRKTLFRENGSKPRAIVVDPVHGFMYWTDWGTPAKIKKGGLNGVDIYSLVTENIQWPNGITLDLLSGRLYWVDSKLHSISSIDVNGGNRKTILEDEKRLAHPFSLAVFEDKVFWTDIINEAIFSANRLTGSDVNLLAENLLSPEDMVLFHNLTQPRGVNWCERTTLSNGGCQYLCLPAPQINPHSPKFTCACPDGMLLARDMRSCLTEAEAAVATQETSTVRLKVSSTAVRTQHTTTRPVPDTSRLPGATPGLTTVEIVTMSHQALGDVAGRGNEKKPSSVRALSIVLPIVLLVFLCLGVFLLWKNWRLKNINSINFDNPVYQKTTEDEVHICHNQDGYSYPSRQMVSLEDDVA
# UniProt P18858, whole entry, looked up: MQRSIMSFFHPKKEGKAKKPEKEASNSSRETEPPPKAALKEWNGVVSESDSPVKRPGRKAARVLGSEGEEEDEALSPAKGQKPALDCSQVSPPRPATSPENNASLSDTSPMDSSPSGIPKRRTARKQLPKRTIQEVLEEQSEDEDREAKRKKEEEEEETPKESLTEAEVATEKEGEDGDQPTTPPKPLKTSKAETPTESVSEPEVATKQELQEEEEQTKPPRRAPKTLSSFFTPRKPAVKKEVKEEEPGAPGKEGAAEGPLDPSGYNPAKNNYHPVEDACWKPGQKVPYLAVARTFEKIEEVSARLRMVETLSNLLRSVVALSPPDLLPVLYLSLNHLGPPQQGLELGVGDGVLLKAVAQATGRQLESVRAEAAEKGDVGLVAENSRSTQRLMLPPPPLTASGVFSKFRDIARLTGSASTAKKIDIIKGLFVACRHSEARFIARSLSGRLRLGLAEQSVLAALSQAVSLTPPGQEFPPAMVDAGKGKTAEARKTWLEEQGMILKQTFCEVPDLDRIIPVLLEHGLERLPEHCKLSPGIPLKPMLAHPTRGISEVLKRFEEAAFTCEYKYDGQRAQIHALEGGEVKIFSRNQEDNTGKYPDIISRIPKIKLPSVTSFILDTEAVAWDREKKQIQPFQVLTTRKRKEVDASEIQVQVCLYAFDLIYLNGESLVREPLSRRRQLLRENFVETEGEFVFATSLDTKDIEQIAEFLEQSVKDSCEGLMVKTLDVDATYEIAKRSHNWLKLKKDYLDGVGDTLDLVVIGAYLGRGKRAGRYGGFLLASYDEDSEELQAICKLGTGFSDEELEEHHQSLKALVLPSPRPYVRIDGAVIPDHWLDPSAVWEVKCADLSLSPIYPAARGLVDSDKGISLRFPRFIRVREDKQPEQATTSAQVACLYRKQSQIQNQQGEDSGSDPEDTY
# Some of the results follow. The data scatter; read single values as rough.
# Key:
# [1] = compound: ClCC(=O)N[C@@H]1CCCc2ccccc12; experiment: log2 mean competition ratio of IA-DTB cysteine labelling (DMSO/compound) (log2 ratio); higher = stronger cysteine engagement by compound; details: treatment time: 4 h, cell line lysate: HEK293T
# Method: (§1)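 IA-DTB competitive cysteine chemoproteomics in HEK293T RIPA lysate. Lysates were treated with compound 29 or 30 at 50 or 200 µM for 4 h, then IA-DTB (500 µM, 1 h), trypsin-digested, NeutrAvidin-enriched and analysed by diaPASEF. Competition ratio = intensity DMSO / intensity compound (n=4 treated, n=64 DMSO); binding: mean log2 CR ≥ 1 and p ≤ 0.05 plus QC filters. Target is the cysteine site.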
# [2] = compound: ClCC(=O)N[C@H]1CCCc2ccccc12; experiment: as above; details: treatment time: 4 h, cell line lysate: HEK293T
# Method: as §1
target,measurement,setting,value
L2HGDH C272 (UniProt Q9H9P8),log2 mean competition ratio,[1]; 50 µM,-0.114
same,log2 mean competition ratio,[1]; 200 µM,-0.0691
same,log2 mean competition ratio,[2]; 50 µM,0.021
same,log2 mean competition ratio,[2]; 200 µM,-0.0637
KLHDC3 C213 (UniProt Q9BQ90),log2 mean competition ratio,[1]; 50 µM,0.257
same,log2 mean competition ratio,[1]; 200 µM,0.204
same,log2 mean competition ratio,[2]; 50 µM,-0.269
same,log2 mean competition ratio,[2]; 200 µM,0.0503
KMT2B C353 (UniProt Q9UMN6),log2 mean competition ratio,[1]; 50 µM,0.0504
same,log2 mean competition ratio,[1]; 200 µM,0.242
same,log2 mean competition ratio,[2]; 50 µM,-0.0626
same,log2 mean competition ratio,[2]; 200 µM,0.206
LEMD3 C547 (UniProt Q9Y2U8),log2 mean competition ratio,[1]; 50 µM,-0.0592
same,log2 mean competition ratio,[1]; 200 µM,0.0386
same,log2 mean competition ratio,[2]; 50 µM,-0.23
same,log2 mean competition ratio,[2]; 200 µM,-0.0727
KIF7 C647,log2 mean competition ratio,[1]; 50 µM,0.00407
same,log2 mean competition ratio,[1]; 200 µM,0.147
same,log2 mean competition ratio,[2]; 50 µM,0.0579
same,log2 mean competition ratio,[2]; 200 µM,0.334
KMT2A C2783 (UniProt Q03164),log2 mean competition ratio,[1]; 50 µM,0.138
same,log2 mean competition ratio,[1]; 200 µM,0.383
same,log2 mean competition ratio,[2]; 50 µM,0.413
same,log2 mean competition ratio,[2]; 200 µM,0.279
LIN9 C435 (UniProt Q5TKA1),log2 mean competition ratio,[1]; 50 µM,-0.122
same,log2 mean competition ratio,[1]; 200 µM,0.358
same,log2 mean competition ratio,[2]; 50 µM,-0.107
same,log2 mean competition ratio,[2]; 200 µM,0.422
LIMD1 C472 (UniProt Q9UGP4),log2 mean competition ratio,[1]; 50 µM,-0.105
same,log2 mean competition ratio,[1]; 200 µM,-0.285
same,log2 mean competition ratio,[2]; 50 µM,0.623
same,log2 mean competition ratio,[2]; 200 µM,-0.0277
KRR1 C142 (UniProt Q13601),log2 mean competition ratio,[1]; 50 µM,-0.347
same,log2 mean competition ratio,[1]; 200 µM,0.17
same,log2 mean competition ratio,[2]; 50 µM,-0.567
same,log2 mean competition ratio,[2]; 200 µM,0.284
LIN37 C176 (UniProt Q96GY3),log2 mean competition ratio,[1]; 50 µM,-0.0192
same,log2 mean competition ratio,[1]; 200 µM,0.384
same,log2 mean competition ratio,[2]; 50 µM,-0.624
same,log2 mean competition ratio,[2]; 200 µM,0.321
LIG4 C20 (UniProt P49917),log2 mean competition ratio,[1]; 50 µM,0.225
same,log2 mean competition ratio,[1]; 200 µM,-0.104
same,log2 mean competition ratio,[2]; 50 µM,0.378
same,log2 mean competition ratio,[2]; 200 µM,-0.121
LONRF2 C258 (UniProt Q1L5Z9),log2 mean competition ratio,[1]; 50 µM,-0.157
same,log2 mean competition ratio,[1]; 200 µM,-0.0918
same,log2 mean competition ratio,[2]; 50 µM,-0.251
same,log2 mean competition ratio,[2]; 200 µM,-0.0164
KIF7 C667,log2 mean competition ratio,[1]; 50 µM,0.236
same,log2 mean competition ratio,[1]; 200 µM,0.301
same,log2 mean competition ratio,[2]; 50 µM,-0.479
same,log2 mean competition ratio,[2]; 200 µM,0.345
KLC3 C230 (UniProt Q6P597),log2 mean competition ratio,[1]; 50 µM,-0.0598
same,log2 mean competition ratio,[1]; 200 µM,-0.0268
same,log2 mean competition ratio,[2]; 50 µM,0.345
same,log2 mean competition ratio,[2]; 200 µM,-0.00335
KLHL7 C378 (UniProt Q8IXQ5),log2 mean competition ratio,[1]; 50 µM,-0.269
same,log2 mean competition ratio,[1]; 200 µM,-0.203
same,log2 mean competition ratio,[2]; 50 µM,-0.187
same,log2 mean competition ratio,[2]; 200 µM,-0.602
KNTC1 C683 (UniProt P50748),log2 mean competition ratio,[1]; 50 µM,0.262
same,log2 mean competition ratio,[1]; 200 µM,1.12
same,log2 mean competition ratio,[2]; 50 µM,0.37
same,log2 mean competition ratio,[2]; 200 µM,0.681
KMT2D C2249 (UniProt O14686),log2 mean competition ratio,[1]; 50 µM,-0.176
same,log2 mean competition ratio,[1]; 200 µM,-0.0183
same,log2 mean competition ratio,[2]; 50 µM,0.49
same,log2 mean competition ratio,[2]; 200 µM,0.0894
KNL1 C1529 (UniProt Q8NG31),log2 mean competition ratio,[1]; 50 µM,0.322
same,log2 mean competition ratio,[1]; 200 µM,-0.0617
same,log2 mean competition ratio,[2]; 50 µM,-0.0613
same,log2 mean competition ratio,[2]; 200 µM,0.224
LIN7C C47 (UniProt Q9NUP9),log2 mean competition ratio,[1]; 50 µM,0.22
same,log2 mean competition ratio,[1]; 200 µM,0.00976
same,log2 mean competition ratio,[2]; 50 µM,0.129
same,log2 mean competition ratio,[2]; 200 µM,0.0663
LRP1 C2404 (UniProt Q07954),log2 mean competition ratio,[1]; 50 µM,-0.0617
same,log2 mean competition ratio,[1]; 200 µM,0.204
same,log2 mean competition ratio,[2]; 50 µM,-0.372
same,log2 mean competition ratio,[2]; 200 µM,0.251
LEMD2 C261 (UniProt Q8NC56),log2 mean competition ratio,[1]; 50 µM,-0.203
same,log2 mean competition ratio,[1]; 200 µM,0.271
same,log2 mean competition ratio,[2]; 50 µM,-0.0846
same,log2 mean competition ratio,[2]; 200 µM,0.414
LETM1 C379 (UniProt O95202),log2 mean competition ratio,[1]; 50 µM,-0.0451
same,log2 mean competition ratio,[1]; 200 µM,0.112
same,log2 mean competition ratio,[2]; 50 µM,0.183
same,log2 mean competition ratio,[2]; 200 µM,0.152
KIF7 C1283,log2 mean competition ratio,[1]; 50 µM,0.33
same,log2 mean competition ratio,[1]; 200 µM,-0.267
same,log2 mean competition ratio,[2]; 50 µM,0.302
same,log2 mean competition ratio,[2]; 200 µM,-0.236
LPCAT1 C443 (UniProt Q8NF37),log2 mean competition ratio,[1]; 50 µM,-0.218
same,log2 mean competition ratio,[1]; 200 µM,-0.0881
same,log2 mean competition ratio,[2]; 50 µM,-0.243
same,log2 mean competition ratio,[2]; 200 µM,-0.124
KMT2C C3751 (UniProt Q8NEZ4),log2 mean competition ratio,[1]; 50 µM,0.388
same,log2 mean competition ratio,[1]; 200 µM,-0.557
same,log2 mean competition ratio,[2]; 50 µM,0.0279
same,log2 mean competition ratio,[2]; 200 µM,-0.286
KTN1 C1136,log2 mean competition ratio,[1]; 50 µM,0.00094
same,log2 mean competition ratio,[1]; 200 µM,-0.216
same,log2 mean competition ratio,[2]; 50 µM,-0.546
same,log2 mean competition ratio,[2]; 200 µM,-0.354
LLGL2 C280 (UniProt Q6P1M3),log2 mean competition ratio,[1]; 50 µM,0.0286
same,log2 mean competition ratio,[1]; 200 µM,0.188
same,log2 mean competition ratio,[2]; 50 µM,-0.421
same,log2 mean competition ratio,[2]; 200 µM,0.0456
LNPEP C103 (UniProt Q9UIQ6),log2 mean competition ratio,[1]; 50 µM,-0.445
same,log2 mean competition ratio,[1]; 200 µM,0.431
same,log2 mean competition ratio,[2]; 50 µM,-0.258
same,log2 mean competition ratio,[2]; 200 µM,0.268
LONP2 C405 (UniProt Q86WA8),log2 mean competition ratio,[1]; 50 µM,0.182
same,log2 mean competition ratio,[1]; 200 µM,0.294
same,log2 mean competition ratio,[2]; 50 µM,0.0144
same,log2 mean competition ratio,[2]; 200 µM,0.277
LNPEP C305 (UniProt Q9UIQ6),log2 mean competition ratio,[1]; 50 µM,-0.0266
same,log2 mean competition ratio,[1]; 200 µM,-0.546
same,log2 mean competition ratio,[2]; 50 µM,0.0212
same,log2 mean competition ratio,[2]; 200 µM,-0.309
KLHDC4 C430 (UniProt Q8TBB5),log2 mean competition ratio,[1]; 50 µM,-0.504
same,log2 mean competition ratio,[1]; 200 µM,0.203
same,log2 mean competition ratio,[2]; 50 µM,-0.0766
same,log2 mean competition ratio,[2]; 200 µM,0.0545
KIZ C50 (UniProt Q2M2Z5),log2 mean competition ratio,[1]; 50 µM,0.217
same,log2 mean competition ratio,[2]; 50 µM,0.0324
same,log2 mean competition ratio,[2]; 200 µM,0.903
LARP4B C167 (UniProt Q92615),log2 mean competition ratio,[1]; 200 µM,0.182
same,log2 mean competition ratio,[2]; 50 µM,0.312
same,log2 mean competition ratio,[2]; 200 µM,0.223
LMO7 C228 (UniProt Q8WWI1),log2 mean competition ratio,[1]; 50 µM,-0.219
same,log2 mean competition ratio,[1]; 200 µM,-0.0331
same,log2 mean competition ratio,[2]; 50 µM,0.0983
same,log2 mean competition ratio,[2]; 200 µM,0.258
LEMD3 C254 (UniProt Q9Y2U8),log2 mean competition ratio,[1]; 200 µM,-0.0191
same,log2 mean competition ratio,[2]; 200 µM,0.197
LDHA C163,log2 mean competition ratio,[1]; 50 µM,0.38
same,log2 mean competition ratio,[1]; 200 µM,0.178
same,log2 mean competition ratio,[2]; 50 µM,0.153
same,log2 mean competition ratio,[2]; 200 µM,0.239
LARP4 C76 (UniProt Q71RC2),log2 mean competition ratio,[1]; 50 µM,-0.319
same,log2 mean competition ratio,[1]; 200 µM,-0.248
same,log2 mean competition ratio,[2]; 50 µM,0.57
same,log2 mean competition ratio,[2]; 200 µM,-0.14
KNL1 C2338 (UniProt Q8NG31),log2 mean competition ratio,[1]; 50 µM,-0.128
same,log2 mean competition ratio,[1]; 200 µM,0.0257
same,log2 mean competition ratio,[2]; 50 µM,0.111
same,log2 mean competition ratio,[2]; 200 µM,0.0822
LDLR C75 (UniProt P01130),log2 mean competition ratio,[1]; 50 µM,-0.0361
same,log2 mean competition ratio,[1]; 200 µM,0.539
same,log2 mean competition ratio,[2]; 50 µM,0.0504
same,log2 mean competition ratio,[2]; 200 µM,0.591
LONRF3 C511,log2 mean competition ratio,[1]; 50 µM,-0.163
same,log2 mean competition ratio,[2]; 200 µM,0.123
KLHL22 C11 (UniProt Q53GT1),log2 mean competition ratio,[1]; 50 µM,-0.143
same,log2 mean competition ratio,[1]; 200 µM,0.36
same,log2 mean competition ratio,[2]; 50 µM,-0.188
same,log2 mean competition ratio,[2]; 200 µM,0.399
LARS2 C578 (UniProt Q15031),log2 mean competition ratio,[1]; 50 µM,0.241
same,log2 mean competition ratio,[1]; 200 µM,-0.139
same,log2 mean competition ratio,[2]; 50 µM,0.183
same,log2 mean competition ratio,[2]; 200 µM,-0.0994
KRI1 C531 (UniProt Q8N9T8),log2 mean competition ratio,[1]; 50 µM,0.42
same,log2 mean competition ratio,[1]; 200 µM,0.334
same,log2 mean competition ratio,[2]; 50 µM,-0.337
same,log2 mean competition ratio,[2]; 200 µM,-0.12
KLHDC3 C102 (UniProt Q9BQ90),log2 mean competition ratio,[1]; 50 µM,-0.0247
same,log2 mean competition ratio,[1]; 200 µM,0.0294
same,log2 mean competition ratio,[2]; 50 µM,0.0703
same,log2 mean competition ratio,[2]; 200 µM,-0.236
LRP1 C2660 (UniProt Q07954),log2 mean competition ratio,[1]; 50 µM,-0.0783
same,log2 mean competition ratio,[1]; 200 µM,-0.0782
same,log2 mean competition ratio,[2]; 50 µM,0.385
same,log2 mean competition ratio,[2]; 200 µM,0.228
LIG1 C508 (UniProt P18858),log2 mean competition ratio,[1]; 50 µM,-0.247
same,log2 mean competition ratio,[1]; 200 µM,-0.198
same,log2 mean competition ratio,[2]; 50 µM,0.0574
same,log2 mean competition ratio,[2]; 200 µM,0.0113

# Fetched one by one from above (seven):
target,measurement,setting,value
LLGL2 C280 (UniProt Q6P1M3),log2 mean competition ratio,[1]; 200 µM,0.188
KLHL7 C378 (UniProt Q8IXQ5),log2 mean competition ratio,[1]; 50 µM,-0.269
L2HGDH C272 (UniProt Q9H9P8),log2 mean competition ratio,[1]; 50 µM,-0.114
KNL1 C2338 (UniProt Q8NG31),log2 mean competition ratio,[1]; 50 µM,-0.128
LARS2 C578 (UniProt Q15031),log2 mean competition ratio,[2]; 50 µM,0.183
KLHDC3 C213 (UniProt Q9BQ90),log2 mean competition ratio,[1]; 200 µM,0.204
KNL1 C2338 (UniProt Q8NG31),log2 mean competition ratio,[1]; 200 µM,0.0257

# Already shown: entries from further up.
target,measurement,setting,value
LARP4B C167 (UniProt Q92615),log2 mean competition ratio,[1]; 200 µM,0.182
same,log2 mean competition ratio,[2]; 50 µM,0.312
same,log2 mean competition ratio,[2]; 200 µM,0.223
LMO7 C228 (UniProt Q8WWI1),log2 mean competition ratio,[1]; 50 µM,-0.219
same,log2 mean competition ratio,[1]; 200 µM,-0.0331
